Assay results: US10960088B2, “Macrocycles, cobalt and iron complexes of same, and methods of making and using same” (The Research Foundation for The State University of New York, priority 2013, dated 2021)

Key:
[1] = T1/T2 relaxivity at 4.7 T
[2] = CEST spectroscopy at 11.7 T
[3] = 4.7 Telsa, 37° C., 0.25-4 mM complex, 20 mM HEPES, 100 mM NaCl, pH 7.4-7.5
[4] = 10 mM Co(II) complex, 20 mM HEPES, 100 mM NaCl, pH 7.4, B1=24 μT for 2 s, 37° C.
[5] = from slopes, FIG. 47, HEPES buffer pH 7.2, 37° C.

Structure (SMILES) | T1 Relaxivity [1, 3] | T2 Relaxivity [1, 3] | CEST peak position [2, 4] | other results
NC(=O)CN1CCOCCOCCN(CC(N)=O)CCOCC1.[Co+2] [[Co(NOPE)]^2+] | 0.038 mM⁻¹ s⁻¹ | 0.119 mM⁻¹ s⁻¹ | – | –
NC(=O)CN1CCCN(CC(N)=O)CCN(CC(N)=O)CCCN(CC(N)=O)CC1.[Co+2] [[Co(CCRM)]^2+] | 0.008 mM⁻¹ s⁻¹ | 0.127 mM⁻¹ s⁻¹ | – | –
NC(=O)CN1CCN(CC(N)=O)CCN(CC(N)=O)CC1.[Co+2] [[Co(TCMT)]^2+] | 0.125 mM⁻¹ s⁻¹ | 0.297 mM⁻¹ s⁻¹ | 32 ppm | –
[Co+2].c1cc(CN2CCN(Cc3cc[nH]n3)CCN(Cc3cc[nH]n3)CC2)n[nH]1 [[Co(TPT)]^2+] | – | – | – | T1 Relaxivity ([1]; 4.7 T MRI scanner): 0.093 mM⁻¹ s⁻¹; T2 Relaxivity ([1]; 4.7 T MRI scanner): 0.50 mM⁻¹ s⁻¹; T1 Relaxivity [1, 5]: 0.093 mM/s; T2 Relaxivity [1, 5]: 0.50 mM/s; CEST peak (in words) ([2]; diamagnetic Co(III) form): no highly shifted CEST peak; pH optimum of CEST effect ([2]; pH range of 6-8, 37° C.): 6.9; CEST peak position ([2]; versus water set at zero, 37° C., 20 mM buffer, 100 mM NaCl): 135 ppm
NC(=O)CN1CCN(CC(N)=O)CCN(CC(N)=O)CCN(CC(N)=O)CC1.[Co+2] [[Co(TCMC)]^2+] | 0.096 mM⁻¹ s⁻¹ | 0.213 mM⁻¹ s⁻¹ | 45 ppm | –
[Fe+2].c1cc(CN2CCN(Cc3cc[nH]n3)CCN(Cc3cc[nH]n3)CC2)n[nH]1 [[Fe(TPT)]^2+] | – | – | – | CEST peak position upon air oxidation ([2]; after air oxidation, versus the bulk water peak): 5 ppm; CEST peak position ([2]; neutral pH): 18 ppm
